Test results published in article PMC5856744.
No constants are given. Whether binding was seen depends on the method and setting. In cells and extracts the contact can be indirect. Some results given as binding are weak or reduced against the parent protein; the word gives no strength. For some assays here: Tags and fused reporters may be left off the sequences shown. One block for each substance: values may come before it.

The chains behind the UniProt entries cited, without tags or fusion partners. Where a name states a change or a piece, a line headed by the entry shows the natural chain unless it says otherwise.
UniProt P09382: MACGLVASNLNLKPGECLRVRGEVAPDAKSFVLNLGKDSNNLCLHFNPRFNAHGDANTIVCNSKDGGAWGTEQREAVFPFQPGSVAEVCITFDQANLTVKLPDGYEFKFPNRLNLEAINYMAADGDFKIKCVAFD

Columns and labels:
Galectin-1 = Galectin-1 (UniProt P09382); assay: co-IP; HEK293T cells co-transfected with Flag-tagged FOXP3 and Gal-1; immunoprecipitation with anti-Gal-1 antibody, western blot with anti-Flag
Flag-tagged FOXP3 = Flag-tagged FOXP3 (UniProt Q9BZS1); assay: co-IP; HEK293T cells co-transfected with Flag-tagged FOXP3 (full-length, truncated or ΔFKH) and Gal-1; immunoprecipitation with anti-Flag antibody, western blot with anti-Gal-1
[1] = molecular target: T1, Flag-tagged truncated FOXP3 F301-431 (UniProt Q9BZS1); assay: as above
T1 sequence: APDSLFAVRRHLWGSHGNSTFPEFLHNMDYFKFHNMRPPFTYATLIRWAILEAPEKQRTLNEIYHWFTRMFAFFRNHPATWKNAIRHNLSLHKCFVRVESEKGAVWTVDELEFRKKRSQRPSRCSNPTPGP

[2] = molecular target: endogenous FOXP3 (human (endogenous in MCF-7 and T47D)) (UniProt Q9BZS1); assay: co-IP; endogenous proteins in MCF-7 and T47D cells; immunoprecipitation with anti-FOXP3 antibody, IgG as negative control, western blot with anti-Gal-1
FOXP3-eGFP = FOXP3-eGFP (UniProt Q9BZS1); assay: FRET or BRET; FRET microscopy (Nikon A1R) of live T47D cells with FOXP3-eGFP (donor) and Gal-1-dsRed (acceptor), 48 h, 37 °C; FRET efficiency by NIS-Elements

binding (Galectin-1): binds
Substance: Flag-tagged FOXP3 (from UniProt Q9BZS1 1-431)

binding (Flag-tagged FOXP3): binds
binding [1]: binds
Substance: Galectin-1 (from UniProt P09382 3-135)

binding [2]: binds
Substance: endogenous Gal-1 (from UniProt P09382 1-135)

binding (FOXP3-eGFP): binds
Substance: Gal-1-dsRed (from UniProt P09382 3-135)
